Reference: publication PMC4888081
Results are given in words; binding and its absence hold for the method and conditions named. In cells and extracts the contact can be indirect. These calls come from enrichment with a bait or labelling near it, and not all partners need be listed. Where a sequence is shown, tags or fusion partners need not be part of it.

The chains behind the UniProt entries cited, without tags or fusion partners.
UniProt P55200: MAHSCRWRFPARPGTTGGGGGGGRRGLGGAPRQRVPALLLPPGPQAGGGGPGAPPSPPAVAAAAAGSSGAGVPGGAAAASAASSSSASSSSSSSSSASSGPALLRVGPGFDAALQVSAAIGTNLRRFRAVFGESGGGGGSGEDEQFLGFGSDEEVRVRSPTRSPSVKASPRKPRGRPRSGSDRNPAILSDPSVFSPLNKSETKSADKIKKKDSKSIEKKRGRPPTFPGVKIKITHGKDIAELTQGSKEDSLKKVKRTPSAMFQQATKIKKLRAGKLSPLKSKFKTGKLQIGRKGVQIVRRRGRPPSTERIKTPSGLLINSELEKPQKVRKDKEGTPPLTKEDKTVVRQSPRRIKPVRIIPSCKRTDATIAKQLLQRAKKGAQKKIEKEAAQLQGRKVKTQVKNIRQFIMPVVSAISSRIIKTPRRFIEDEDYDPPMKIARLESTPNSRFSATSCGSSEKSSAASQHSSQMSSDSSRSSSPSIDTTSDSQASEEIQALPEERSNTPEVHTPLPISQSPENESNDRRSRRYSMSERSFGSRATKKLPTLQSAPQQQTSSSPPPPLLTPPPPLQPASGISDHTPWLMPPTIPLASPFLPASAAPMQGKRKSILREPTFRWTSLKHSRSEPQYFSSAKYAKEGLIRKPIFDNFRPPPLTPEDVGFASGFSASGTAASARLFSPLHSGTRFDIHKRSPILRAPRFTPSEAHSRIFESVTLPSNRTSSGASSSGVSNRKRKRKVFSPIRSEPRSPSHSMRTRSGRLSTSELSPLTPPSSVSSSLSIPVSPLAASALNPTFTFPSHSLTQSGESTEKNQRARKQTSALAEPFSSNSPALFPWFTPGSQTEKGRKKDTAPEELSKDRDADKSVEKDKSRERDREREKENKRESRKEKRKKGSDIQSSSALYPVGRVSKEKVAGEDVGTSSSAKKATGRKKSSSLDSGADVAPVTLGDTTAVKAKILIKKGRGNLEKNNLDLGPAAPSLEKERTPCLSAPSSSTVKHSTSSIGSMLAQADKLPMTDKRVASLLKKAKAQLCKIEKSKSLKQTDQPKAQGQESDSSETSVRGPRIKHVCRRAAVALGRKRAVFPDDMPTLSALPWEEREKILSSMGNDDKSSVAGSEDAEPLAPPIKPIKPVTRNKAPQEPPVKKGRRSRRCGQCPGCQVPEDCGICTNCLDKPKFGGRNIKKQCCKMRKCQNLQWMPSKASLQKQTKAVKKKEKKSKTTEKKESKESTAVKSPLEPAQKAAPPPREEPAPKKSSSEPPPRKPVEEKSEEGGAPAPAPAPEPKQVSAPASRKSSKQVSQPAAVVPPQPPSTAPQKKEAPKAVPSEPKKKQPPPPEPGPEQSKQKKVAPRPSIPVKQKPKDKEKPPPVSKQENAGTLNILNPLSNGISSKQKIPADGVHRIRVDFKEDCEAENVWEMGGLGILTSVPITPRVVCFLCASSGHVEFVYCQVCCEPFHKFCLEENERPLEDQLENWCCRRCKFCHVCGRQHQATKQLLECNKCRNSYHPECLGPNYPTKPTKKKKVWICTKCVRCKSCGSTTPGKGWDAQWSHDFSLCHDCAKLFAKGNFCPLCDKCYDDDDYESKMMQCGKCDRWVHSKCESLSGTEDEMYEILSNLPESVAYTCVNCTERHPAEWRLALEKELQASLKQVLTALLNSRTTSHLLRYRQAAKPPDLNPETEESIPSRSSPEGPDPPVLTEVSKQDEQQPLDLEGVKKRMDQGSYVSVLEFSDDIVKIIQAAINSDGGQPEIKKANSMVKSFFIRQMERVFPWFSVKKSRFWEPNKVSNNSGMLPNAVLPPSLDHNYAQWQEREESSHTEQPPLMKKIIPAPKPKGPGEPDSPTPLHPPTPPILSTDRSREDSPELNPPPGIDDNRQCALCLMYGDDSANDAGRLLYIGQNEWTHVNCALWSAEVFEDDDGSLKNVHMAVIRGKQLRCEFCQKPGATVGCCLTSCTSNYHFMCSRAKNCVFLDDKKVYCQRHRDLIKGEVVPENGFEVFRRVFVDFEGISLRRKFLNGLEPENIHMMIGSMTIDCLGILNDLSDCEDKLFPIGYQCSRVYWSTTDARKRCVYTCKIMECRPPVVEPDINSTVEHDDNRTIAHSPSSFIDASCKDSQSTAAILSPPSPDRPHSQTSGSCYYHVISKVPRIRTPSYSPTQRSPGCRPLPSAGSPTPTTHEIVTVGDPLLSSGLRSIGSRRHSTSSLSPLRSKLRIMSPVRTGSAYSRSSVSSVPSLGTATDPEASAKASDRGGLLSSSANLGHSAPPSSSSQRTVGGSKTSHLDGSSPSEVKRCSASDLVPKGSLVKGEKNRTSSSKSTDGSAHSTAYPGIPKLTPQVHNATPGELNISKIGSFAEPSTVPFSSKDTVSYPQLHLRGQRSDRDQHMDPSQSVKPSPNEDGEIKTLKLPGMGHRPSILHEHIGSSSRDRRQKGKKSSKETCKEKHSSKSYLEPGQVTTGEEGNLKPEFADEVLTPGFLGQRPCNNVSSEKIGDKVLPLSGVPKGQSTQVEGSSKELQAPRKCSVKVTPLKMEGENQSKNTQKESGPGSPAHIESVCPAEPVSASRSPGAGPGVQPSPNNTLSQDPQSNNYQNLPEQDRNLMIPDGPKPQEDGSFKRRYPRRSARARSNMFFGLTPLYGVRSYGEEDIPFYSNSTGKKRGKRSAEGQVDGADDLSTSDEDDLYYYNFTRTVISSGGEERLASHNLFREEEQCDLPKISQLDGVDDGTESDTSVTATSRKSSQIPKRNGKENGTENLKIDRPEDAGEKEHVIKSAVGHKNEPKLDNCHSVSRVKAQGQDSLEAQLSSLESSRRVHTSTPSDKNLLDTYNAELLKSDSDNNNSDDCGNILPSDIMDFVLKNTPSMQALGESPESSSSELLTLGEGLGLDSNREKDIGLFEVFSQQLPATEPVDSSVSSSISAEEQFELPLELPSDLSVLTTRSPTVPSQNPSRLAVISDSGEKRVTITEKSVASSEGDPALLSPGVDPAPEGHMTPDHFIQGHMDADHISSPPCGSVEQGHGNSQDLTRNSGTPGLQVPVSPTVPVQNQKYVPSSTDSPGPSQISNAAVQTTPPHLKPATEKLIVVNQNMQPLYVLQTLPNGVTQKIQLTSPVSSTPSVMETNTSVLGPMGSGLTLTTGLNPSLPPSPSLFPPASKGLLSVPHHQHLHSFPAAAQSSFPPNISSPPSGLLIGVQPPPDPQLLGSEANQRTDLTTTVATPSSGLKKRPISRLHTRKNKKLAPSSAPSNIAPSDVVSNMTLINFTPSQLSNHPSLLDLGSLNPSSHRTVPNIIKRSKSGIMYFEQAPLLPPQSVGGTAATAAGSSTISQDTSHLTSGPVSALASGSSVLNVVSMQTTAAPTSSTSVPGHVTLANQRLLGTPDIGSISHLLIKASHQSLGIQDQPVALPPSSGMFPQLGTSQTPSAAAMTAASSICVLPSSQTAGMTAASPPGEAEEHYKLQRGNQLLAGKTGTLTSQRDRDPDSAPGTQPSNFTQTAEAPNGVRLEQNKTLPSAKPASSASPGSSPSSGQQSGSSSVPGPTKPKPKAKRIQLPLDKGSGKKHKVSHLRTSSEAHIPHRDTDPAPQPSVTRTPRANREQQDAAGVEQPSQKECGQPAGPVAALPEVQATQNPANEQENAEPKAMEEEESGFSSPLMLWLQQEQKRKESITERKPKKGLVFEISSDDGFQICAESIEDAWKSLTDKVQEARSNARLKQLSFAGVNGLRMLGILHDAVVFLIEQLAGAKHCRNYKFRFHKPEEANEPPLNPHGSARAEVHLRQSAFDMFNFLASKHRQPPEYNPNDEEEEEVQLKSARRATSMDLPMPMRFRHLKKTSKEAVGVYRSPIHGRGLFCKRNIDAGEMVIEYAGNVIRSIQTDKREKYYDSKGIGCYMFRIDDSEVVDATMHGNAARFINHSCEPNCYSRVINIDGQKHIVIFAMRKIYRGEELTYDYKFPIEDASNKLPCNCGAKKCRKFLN
UniProt Q8BX09: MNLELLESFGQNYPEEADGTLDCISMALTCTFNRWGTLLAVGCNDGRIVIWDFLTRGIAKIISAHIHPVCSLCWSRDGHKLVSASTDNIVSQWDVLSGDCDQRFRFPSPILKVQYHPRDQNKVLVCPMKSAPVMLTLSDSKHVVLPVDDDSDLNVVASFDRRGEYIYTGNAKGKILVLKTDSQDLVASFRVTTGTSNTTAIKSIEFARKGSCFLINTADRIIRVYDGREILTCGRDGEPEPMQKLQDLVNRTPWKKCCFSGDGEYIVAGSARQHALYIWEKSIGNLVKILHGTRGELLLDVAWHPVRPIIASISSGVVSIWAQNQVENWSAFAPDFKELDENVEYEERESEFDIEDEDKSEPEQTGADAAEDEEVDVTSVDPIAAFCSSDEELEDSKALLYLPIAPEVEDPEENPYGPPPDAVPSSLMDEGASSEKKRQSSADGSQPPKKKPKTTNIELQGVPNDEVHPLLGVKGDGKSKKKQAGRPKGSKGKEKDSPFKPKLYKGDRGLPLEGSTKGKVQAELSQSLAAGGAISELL

T1: HA-Pcgf6 (polycomb group ring finger 6) (UniProt Q99NA9)
T1 sequence: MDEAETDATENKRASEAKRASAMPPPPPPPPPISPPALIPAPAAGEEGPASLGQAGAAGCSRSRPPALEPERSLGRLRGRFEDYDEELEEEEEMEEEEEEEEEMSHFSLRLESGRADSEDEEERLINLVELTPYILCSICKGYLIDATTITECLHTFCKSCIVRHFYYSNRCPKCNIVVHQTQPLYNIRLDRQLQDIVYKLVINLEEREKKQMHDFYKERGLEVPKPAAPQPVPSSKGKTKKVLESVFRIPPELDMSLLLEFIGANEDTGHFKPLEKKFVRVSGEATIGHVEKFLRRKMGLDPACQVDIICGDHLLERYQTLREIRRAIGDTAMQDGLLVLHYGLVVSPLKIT


Target: T1, HA-Pcgf6 (polycomb group ring finger 6)
Experiment: affinity purification with mass spectrometry; HA-Pcgf6 immunoprecipitated from ESCs; co-immunoprecipitated proteins detected by mass spectrometry

binding	Molecule
binds	Mll1 (from UniProt P55200 1-3966)
binds	Rbbp5 (from UniProt Q8BX09 1-538)
binds	Zfp219 (protein, UniProt Q6IQX8 1-726) MEGSRPRILVGHLEPSPPAFDGELDLQRYSNGPGVSGTPGPGSPGMGAVGWSETRAGERRFPCPVCGKRFRFNSILALHLRAHPGAQAFQCPHCGHRAAQRALLRSHLRTHQPERPRSPAARLLLELEERALLREARLGRARSSGGMQSSPAAEGLARPQVPSSSAFRCPFCKGKFRTSAERERHLHILHRPWKCSLCSFGSSQEEELLHHSLTAHGASERPLAATSTPEPPPPPQQEPRSALEPEPEPEPRPEPDREANPAPTPAPPEEPPAPPEFRCQVCGQSFTQSWFLKGHMRKHKASFDHACPVCGRCFKEPWFLKNHMKVHTSKLGPLRAPGPGSAPARAPQPPDLSLLAYEPLGPALLLAPAPAPAERREPPSLLGYLSVRAGEVRPNGEGADPGGGRSYGGFRPLPSALPNRARRHRTEEPEEEEEVVEAEEESWARGRSLGSLTSLHPNPGEGSGQPAPAAGTQARSTATQEENGLLVGGTRSEAGRGATGKDCPFCGKSFRSAHHLKVHLRVHTGERPYKCPHCDYAGTQSGSLKYHLQRHHREQRSSAGPGPPPEPPPPSQRGSLQPQSGAKPTQASATWVEGTASTRPPSSSTGPGSRRKPASPGRTLRNGRGGEAEPLDLSLRAGPGGEAGAGGALHRCLFCPFATGAPELMALHLQVHHSRRARGRRQPRADTSPTYVRAPSGETPPSPPLEEEGSPGLSRSGEAGLGGQER
